For the assay, the target named is T1, HNF4α (human (endogenous in HPAEpiCs)) (UniProt P41235).
T1 sequence: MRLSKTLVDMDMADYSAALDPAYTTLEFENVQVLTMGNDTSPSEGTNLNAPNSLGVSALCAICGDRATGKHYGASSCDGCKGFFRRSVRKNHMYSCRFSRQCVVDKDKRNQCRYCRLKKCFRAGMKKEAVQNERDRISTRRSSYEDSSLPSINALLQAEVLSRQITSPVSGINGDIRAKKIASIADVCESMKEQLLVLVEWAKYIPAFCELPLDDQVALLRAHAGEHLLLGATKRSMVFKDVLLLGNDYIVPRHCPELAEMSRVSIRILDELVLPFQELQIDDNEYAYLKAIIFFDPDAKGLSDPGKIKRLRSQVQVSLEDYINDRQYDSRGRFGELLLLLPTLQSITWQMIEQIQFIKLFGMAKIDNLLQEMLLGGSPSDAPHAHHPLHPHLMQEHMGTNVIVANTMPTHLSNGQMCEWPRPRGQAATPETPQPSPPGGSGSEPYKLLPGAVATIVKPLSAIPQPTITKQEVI
Put plainly: co-IP; HPAEpiCs lysed on ice in cell lysis buffer; supernatant incubated with anti-HNF4α antibodies overnight, then Protein A Agarose for 4 hr at 4 °C, washed three times, immunoblotting after elution.

Chains of the proteins cited; added tags and fusions are not shown.
UniProt P08047: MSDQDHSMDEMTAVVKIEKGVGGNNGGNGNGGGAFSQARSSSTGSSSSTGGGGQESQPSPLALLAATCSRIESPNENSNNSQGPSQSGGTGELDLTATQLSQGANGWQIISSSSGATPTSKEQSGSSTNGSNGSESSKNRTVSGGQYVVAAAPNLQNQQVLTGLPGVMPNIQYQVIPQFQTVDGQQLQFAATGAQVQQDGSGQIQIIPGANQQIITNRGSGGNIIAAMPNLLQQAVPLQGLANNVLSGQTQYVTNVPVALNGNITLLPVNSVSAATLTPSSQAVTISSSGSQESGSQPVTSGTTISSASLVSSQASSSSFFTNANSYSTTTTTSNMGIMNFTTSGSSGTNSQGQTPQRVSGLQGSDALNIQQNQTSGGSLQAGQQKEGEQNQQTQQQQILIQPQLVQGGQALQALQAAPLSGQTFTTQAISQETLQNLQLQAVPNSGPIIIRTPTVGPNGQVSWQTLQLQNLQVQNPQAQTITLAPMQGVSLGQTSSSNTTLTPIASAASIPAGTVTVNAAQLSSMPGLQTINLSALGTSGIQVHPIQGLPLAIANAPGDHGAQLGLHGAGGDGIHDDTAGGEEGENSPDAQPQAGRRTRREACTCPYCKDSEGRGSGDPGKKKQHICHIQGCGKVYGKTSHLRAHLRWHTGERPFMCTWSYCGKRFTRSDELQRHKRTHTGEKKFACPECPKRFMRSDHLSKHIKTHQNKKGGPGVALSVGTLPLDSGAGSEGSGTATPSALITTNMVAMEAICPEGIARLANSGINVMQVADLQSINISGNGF

From paper PMC10878691 come the findings set out here.

Results are given in words; binding and its absence hold for the method and conditions named. Binding seen in cells or lysates may run through a third protein. Some binding calls cover weakened binding; strength is not graded here.

For the substance SP1 (from UniProt P08047 1-785), the binding entry is on record as “binds”.
